Reference: PMC9525012
No constants are given. Whether binding was seen depends on the method and setting. Some results given as binding are weak or reduced against the parent protein; the word gives no strength. For some of these results: Tags and fused reporters may be left off the sequences shown. One block for each binder: values may come before it.

Experiments:
[1] = target: Sabatolimab, humanized anti-TIM-3 monoclonal antibody (hIgG4, S228P); experiment: SPR; Biacore; sabatolimab captured (~50 RU) by a human Fab capture antibody amine-coupled on a CM5 chip; TIM-3/His as analyte, 90 nM diluted 1:3, seven concentrations, HBS-EP+ buffer; 1:1 binding model, double reference subtraction; both purified
[2] = target: human TIM-3-Fc fusion protein (human), Q8TDQ0; experiment: Luminex bead assay; competition: TIM-3 Fc beads incubated with serially diluted antibody 1.5 hours at RT, washed, then galectin-9 PE at 4 μg/ml for 45 minutes at RT; both purified; conditions: remark: other sources report otherwise
[3] = target: human TIM-3-Fc fusion protein (human), Q8TDQ0; experiment: Luminex bead assay; PE-labelled galectin-9 titrated on Luminex magnetic beads coated with two concentrations of TIM-3 Fc; both purified; conditions: remark: other sources report otherwise
[4] = target: human TIM-3-Fc fusion protein (human), Q8TDQ0; experiment: MSD (MesoScale Discovery) plate assay; competition: plate coated with TIM-3 Fc at 2 μg/ml; sabatolimab in 1:2 serial dilutions 1 hour at RT, washed, then 3 μg/ml galectin-9 SULFO-TAG 1 hour at RT; both purified; conditions: remark: other sources report otherwise

binding [1]: no binding (tested: 90 nM)
B1: recombinant murine TIM-3/His (receptor, UniProt Q8VIM0 20-193)
chain: RSLENAYVFEVGKNAYLPCSYTLSTPGALVPMCWGKGFCPWSQCTNELLRTDERNVTYQKSSRYQLKGDLNKGDVSLIIKNVTLDDHGTYCCRIQFPGLMNDKKLELKLDIKAAKVTPAQTAHGDSTTASPRTLTTERNGSETQTLVTLHNNNGTKISTWADEIKDSGETIRTA

binding [2]: binds
binding [3]: binds
B2: recombinant human galectin-9, PE-labelled, O00182 1-355 (ligand)
chain: MAFSGSQAPYLSPAVPFSGTIQGGLQDGLQITVNGTVLSSSGTRFAVNFQTGFSGNDIAFHFNPRFEDGGYVVCNTRQNGSWGPEERKTHMPFQKGMPFDLCFLVQSSDFKVMVNGILFVQYFHRVPFHRVDTISVNGSVQLSYISFQNPRTVPVQPAFSTVPFSQPVCFPPRPRGRRQKPPGVWPANPAPITQTVIHTVQSAPGQMFSTPAIPPMMYPHPAYPMPFITTILGGLYPSKSILLSGTVLPSAQRFHINLCSGNHIAFHLNPRFDENAVVRNTQIDNSWGSEERSLPRKMPFVRGQSFSVWILCEAHCLKVAVDGQHLFEYYHRLRNLPTINRLEVGGDIQLTHVQT
modifications: here or on the partner: conjugated to PE (Lightning Link R-PE Antibody Labeling Kit)

binding [4]: binds
B3: human recombinant galectin-9, SULFO-TAG-labelled, O00182 1-355 (ligand)
chain: MAFSGSQAPYLSPAVPFSGTIQGGLQDGLQITVNGTVLSSSGTRFAVNFQTGFSGNDIAFHFNPRFEDGGYVVCNTRQNGSWGPEERKTHMPFQKGMPFDLCFLVQSSDFKVMVNGILFVQYFHRVPFHRVDTISVNGSVQLSYISFQNPRTVPVQPAFSTVPFSQPVCFPPRPRGRRQKPPGVWPANPAPITQTVIHTVQSAPGQMFSTPAIPPMMYPHPAYPMPFITTILGGLYPSKSILLSGTVLPSAQRFHINLCSGNHIAFHLNPRFDENAVVRNTQIDNSWGSEERSLPRKMPFVRGQSFSVWILCEAHCLKVAVDGQHLFEYYHRLRNLPTINRLEVGGDIQLTHVQT
modifications: here or on the partner: conjugated with MSD GOLD SULFO-TAG NHS-Ester
